The results in this text go back to patent publication US6596524.

In series [1] the test system is T1, BsmAI restriction endonuclease (native) (Bacillus stearothermophilus A664).
T1 sequence: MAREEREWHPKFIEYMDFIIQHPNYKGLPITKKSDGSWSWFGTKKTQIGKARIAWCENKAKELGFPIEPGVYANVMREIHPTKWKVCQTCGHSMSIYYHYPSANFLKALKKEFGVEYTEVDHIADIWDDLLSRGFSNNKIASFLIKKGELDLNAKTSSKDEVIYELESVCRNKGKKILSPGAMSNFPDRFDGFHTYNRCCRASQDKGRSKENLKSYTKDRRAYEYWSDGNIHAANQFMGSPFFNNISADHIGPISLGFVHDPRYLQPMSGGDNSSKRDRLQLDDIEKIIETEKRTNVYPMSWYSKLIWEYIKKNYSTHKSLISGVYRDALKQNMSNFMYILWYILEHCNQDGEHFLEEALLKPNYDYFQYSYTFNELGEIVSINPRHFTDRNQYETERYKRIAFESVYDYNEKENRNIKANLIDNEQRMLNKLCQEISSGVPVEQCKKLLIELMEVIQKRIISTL
In words: enzyme reaction in vitro. The note with it: positive control, lambda DNA; purified native protein; protein details: New England Biolabs; only the motif is given.

The subject of series [2] is T2, BsmAI restriction endonuclease (recombinant) (Bacillus stearothermophilus A664).
T2 sequence: T1 sequence
In words: enzyme reaction in vitro. As to conditions: lambda DNA digested by serially diluted cell extract; cleaves N1/N5 giving 4-base 5' overhang; protein in a lysate after overexpression; only the motif is ….

Series [3] concerns T3, BsmAI methylase (M.BsmAI) (Bacillus stearothermophilus A664).
T3 sequence (limits assumed): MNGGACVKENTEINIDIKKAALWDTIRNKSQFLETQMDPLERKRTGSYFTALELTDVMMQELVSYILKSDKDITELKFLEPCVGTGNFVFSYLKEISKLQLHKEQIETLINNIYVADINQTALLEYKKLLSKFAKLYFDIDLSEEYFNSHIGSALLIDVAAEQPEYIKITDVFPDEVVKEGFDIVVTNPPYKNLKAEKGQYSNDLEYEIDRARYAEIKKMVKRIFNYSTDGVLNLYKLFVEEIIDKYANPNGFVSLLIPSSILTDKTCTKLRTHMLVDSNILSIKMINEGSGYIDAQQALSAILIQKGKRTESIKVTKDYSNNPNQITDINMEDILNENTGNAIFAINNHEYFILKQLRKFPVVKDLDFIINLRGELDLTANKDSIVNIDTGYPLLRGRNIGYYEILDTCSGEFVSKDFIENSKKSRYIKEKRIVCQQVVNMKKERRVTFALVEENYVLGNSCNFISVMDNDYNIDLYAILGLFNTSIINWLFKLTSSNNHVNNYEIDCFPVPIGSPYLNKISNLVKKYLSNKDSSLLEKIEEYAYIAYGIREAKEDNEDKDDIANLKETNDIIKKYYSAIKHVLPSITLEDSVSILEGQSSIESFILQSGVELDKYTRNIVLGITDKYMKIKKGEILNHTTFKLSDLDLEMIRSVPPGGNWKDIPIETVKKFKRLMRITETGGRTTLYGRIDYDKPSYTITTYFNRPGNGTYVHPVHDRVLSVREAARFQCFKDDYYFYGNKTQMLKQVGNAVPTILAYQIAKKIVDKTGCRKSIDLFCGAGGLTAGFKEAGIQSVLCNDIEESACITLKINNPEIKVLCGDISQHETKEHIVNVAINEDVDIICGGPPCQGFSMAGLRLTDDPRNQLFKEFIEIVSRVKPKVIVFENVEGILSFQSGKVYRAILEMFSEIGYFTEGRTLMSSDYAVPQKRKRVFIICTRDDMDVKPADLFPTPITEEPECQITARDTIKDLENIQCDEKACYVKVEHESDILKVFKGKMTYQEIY
In words: activity in cells. The note with it: plasmid expressing methylase becomes resistant to BsmAI digestion; protein in cells; only the motif is given.

Construct, isoform or probe ends are uncertain for at least one entry. Protein sequences can lack the tags named with them.

Take “GTCTC (double strand) [BsmAI recognition site (in lambda DNA)]”: the “activity on this sequence” value in series [1] and in series [2] was “active” throughout.
For “GTCTC (double strand) [BsmAI recognition site (in pBR322 plasmid carrying bsmAIM)]”, in series [3], the “activity on this sequence” value was “active”.
